# In the supplement of paper PMC5949888:
# Most values lie at the floor of the assay. Slopes are relative: functional sequences can read slightly below zero.
# Test system: Saccharomyces cerevisiae PS128 hsf1 delta, HSF1(1-493) fusion
# Assay: growth estimate (transactivation domain function in HSF1 fusion, heat-shock survival) (a.u. (slope of normalised read count over time)); higher = stronger growth at 37°C, i.e. more transactivation activity
# Conditions: library: random library
# Method: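 Random 60-nt DNA library encoding peptides of up to 20 aa, fused to the C-terminus of yeast HSF1 residues 1-493 (C-terminal TAD deleted) and expressed from the native HSF1 promoter on a CEN plasmid in hsf1-deleted S. cerevisiae PS128. Cells were selected at 37°C on -trp 5-FOA plates for 0, 2, 4, 6 and 8 days and amplicons were sequenced. Growth estimate is the slope of a robust linear fit of total-sum-normalised read counts (normalised to the first time point) over time, using at least 2 replicates. Sequences are classed functional (TAD activity) above a threshold of -0.13, set from stop-codon control sequences.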
row,Substance,growth estimate
1,ENDQSL,< -0.25
2,ENERKRRDISADFHPDGHQA,< -0.25
3,ENGPEFL,< -0.25
4,ENLLGLIVGHRIR,< -0.25
5,ENMDSIAV,< -0.25
6,ENR,< -0.25
7,ENRDVALRPIVVFGGLGCS,< -0.25
8,ENTLTYSD,< -0.25
9,ENVMHGASSFDTAIQRLC,< -0.25
10,ENVSWEGDHCVPRVFSI,< -0.25
11,EPDHNLQPGDWRWYRGHRIS,< -0.25
12,EPEKRGMFPSEGTAGAELWT,< -0.25
13,EPERGLTYQVVVSSSDYFRR,< -0.25
14,EPEVCVRE,< -0.25
15,EPFRLKPLGRSFMFRVDQSS,< -0.25
16,EPIVNNPIPLSATCKTYDAC,< -0.25
17,EPLKKMDVTCRGRHLGYAVF,< -0.25
18,EPMPVL,< -0.25
19,EPNGFAYRCMRKHRL,< -0.25
20,EPNRLGGFKVRWGGPGRQMR,< -0.25
21,EPPVRCSVTRKTCRTLHTLQ,< -0.25
22,EPQRY,< -0.25
23,EPRQCHSRIACN,< -0.25
24,EPRRPAVTGVGGCTGGASGV,< -0.25
25,EPSISNRLSKFRRPRS,< -0.25

row,Substance,growth estimate
1,EPSPWTECKAPRYWL,-0.243
2,EPVFCIPAAGT,< -0.25
3,EPYVTYCVSMSLCFWACRDM,< -0.25
4,EQAPL,< -0.25
5,EQAVWC,< -0.25
6,EQDELMGQLALIQG,< -0.25
7,EQG,< -0.25
8,EQGSAQRHGQVLREGPNRAT,< -0.25
9,EQLVTRRDRLALKLQPPTRV,< -0.25
10,EQPGGPNG,< -0.25
11,EQPS,< -0.25
12,EQREG,< -0.25
13,EQRGFYLY,< -0.25
14,EQRPNHASIFRREV,< -0.25
15,EQS,< -0.25
16,EQTE,< -0.25
17,EQVTQVSLREGLRISVMPND,< -0.25
18,EQYLDKVKRMKSKQYRRWAS,< -0.25
19,ERARRIVDGRPRSLGRIRSG,< -0.25
20,ERASNRFSPVCGHNEHEVAQ,< -0.25
21,ERCTALSYRGLPGILYCY,< -0.25
22,ERDP,< -0.25
23,EREFERTGMRPARNLILALQ,< -0.25
24,EREGNVIRGLPAEERV,< -0.25
25,ERFQRQRT,< -0.25

row,Substance,growth estimate
1,ERFVHDLDKEIASEEQRACQ,< -0.25
2,ERH,< -0.25
3,ERHWVGSARKSRLQYPARLR,< -0.25
4,ERIMAKM,< -0.25
5,ERKAGSFA,< -0.25
6,ERLANVYARRSRLRPQYKRS,< -0.25
7,ERPC,< -0.25
8,ERPEDTRTS,< -0.25
9,ERQGTSESIGLLCGL,< -0.25
10,ERRAITTFICG,< -0.25
11,ERRLHSLRSRIGWTIEPI,< -0.25
12,ERSDLGPSPKTVP,< -0.25
13,ERSGGEQNCLCKLLNEGLCT,< -0.25
14,ERSNRSWLVGLRRRPSGSWR,< -0.25
15,ERSSVRCGIVLATSQPTHMA,< -0.25
16,ERTGVRAASKHLGSLLARGL,< -0.25
17,ERTPPRS,< -0.25
18,ERTRIGPYPAVCRLFRPLRY,< -0.25
19,ERVEYVRHGSHYGGSQRPRP,< -0.25
20,ERYDRPIVPRGLHTGNHCLA,< -0.25
21,ERYFRQVWELRGNITRR,< -0.25
22,ESAASA,< -0.25
23,ESAHGQGEIPGFRNDRVSRV,< -0.25
24,ESAI,-0.239
25,ESATASHSQ,< -0.25

# Four entries picked at random from those above, as already listed:
row,Substance,growth estimate
4,ERIMAKM,< -0.25
2,ERH,< -0.25
20,ERYDRPIVPRGLHTGNHCLA,< -0.25
15,ERSSVRCGIVLATSQPTHMA,< -0.25

# Following part

row,Substance,growth estimate
1,ESCIVRHAWLTDSVSLSRSG,< -0.25
2,ESDCTSFL,-0.246
3,ESDHGKTF,< -0.25
4,ESECD,< -0.25
5,ESGGLRWVVGLVNFQQPGRL,< -0.25
6,ESGKGLGS,< -0.25
7,ESGQHIFPSRV,< -0.25
8,ESIKRSIDFS,< -0.25
9,ESL,< -0.25
10,ESNEVFQQRCYRWELLVLTI,< -0.25
11,ESQAVCVGGVAVMISRRWND,0.0741
12,ESQSFNFWSNY,< -0.25
13,ESQST,< -0.25
14,ESRAQSTGFTRGISCGA,< -0.25
15,ESRENHGIDAG,< -0.25
16,ESRIY,< -0.25
17,ESSGGTGTKFSRHTVSVT,< -0.25
18,ESSRMVDSEGLLRPRFGFRC,< -0.25
19,ESSSPT,< -0.25
20,ESSVLY,< -0.25
21,ESTLTREMAPGGRPRLVVLL,< -0.25
22,ESTQGS,< -0.25
23,ESVG,< -0.25
24,ETDCRKDLESL,< -0.25
25,ETDMMHRRAYSCGRDPSTQR,< -0.25

# Part of the list above, bar-delimited.
row | Substance | growth estimate
23 | EREFERTGMRPARNLILALQ | < -0.25
21 | ERYFRQVWELRGNITRR | < -0.25

# Going on with the list:

row,Substance,growth estimate
1,ETELQL,< -0.25
2,ETGGSRAGMAMNCGPPCHLS,< -0.25
3,ETIH,< -0.25
4,ETILRDGSWHTLFFPKTFYV,-0.245
5,ETPHHEDSCGSRLPLIAGVG,< -0.25
6,ETPIGVFGLCKRHFERHLLV,< -0.25
7,ETPLAESSERLR,< -0.25
8,ETPS,< -0.25
9,ETRARRGGILQYLNWSFRLS,< -0.25
10,ETRGLSI,< -0.25
11,ETSLGHEMDGDQANL,< -0.25
12,ETSRGLIQASCGNR,< -0.25
13,ETVRRLRQYDQR,< -0.25
14,EVASLD,< -0.25
15,EVCLFKHNVASNRGERAAES,< -0.25
16,EVCRPSRRDGRTSFST,< -0.25
17,EVDPPE,< -0.25
18,EVGKCGVSVGWHNSAGHWRP,< -0.25
19,EVGKVLSVYPCASP,-0.25
20,EVGLSTRWV,< -0.25
21,EVGVAAQPSIFGKKHMCSDR,< -0.25
22,EVHLNRLHRSQRHYSPEP,< -0.25
23,EVIWAQPRITDASFYA,< -0.25
24,EVKLLHASSSLAVLANGSSR,< -0.25
25,EVKTVDANRTRLRDNN,< -0.25

row,Substance,growth estimate
1,EVLCGRCRTYRRDVKLLFSI,< -0.25
2,EVLD,< -0.25
3,EVNALYGHETPTLGLADLEP,< -0.25
4,EVP,< -0.25
5,EVPAPI,< -0.25
6,EVQDRPLQTAKVHRAR,-0.245
7,EVQGKSPWQD,< -0.25
8,EVRNGV,< -0.25
9,EVSTQDQ,< -0.25
10,EVVIDYFHGELMDLSRQVQL,0.213
11,EVVYFSILSGFF,< -0.25
12,EWADTPASYRRWGVF,< -0.25
13,EWAGAYKY,-0.106
14,EWGQLEHFLWH,< -0.25
15,EWIVHASPGGAVNTGLGVKL,-0.245
16,EWQGLSLQACDFLFDNARPS,2.79
17,EWRIPGRVRGWRRGSRRASK,< -0.25
18,EWSRGHCKLN,< -0.25
19,EWTGSLSLKQMSYQ,< -0.25
20,EYEVAGHGGWFVWSNSITRR,< -0.25
21,EYGLLSGVVSSRSCRTS,< -0.25
22,EYGRATMVYALPATRCVRVR,< -0.25
23,EYIRR,< -0.25
24,EYKASCYPRR,< -0.25
25,EYLSMCRHYNGSGKSIVRLV,< -0.25

row,Substance,growth estimate
1,EYMRSVMA,< -0.25
2,EYPL,< -0.25
3,EYRLR,< -0.25
4,EYSRLQV,< -0.25
5,EYTGWSPHQPG,< -0.25
6,EYVCAYSFVKRSSGENPIVI,< -0.25
7,FAASGP,< -0.25
8,FACLP,< -0.25
9,FAEKFRDSLLKL,-0.207
10,FAERSNIMR,< -0.25
11,FAFCLSFLPFYFPIPDKVYD,< -0.25
12,FAFLKTG,< -0.25
13,FAFYGPTKDATSCTFHRRAM,< -0.25
14,FAGSTGDRSPFVHLLWQSRK,< -0.25
15,FAGSVLLFYSRYIGFFQPSS,< -0.25
16,FAHATAGMRRELCFNQLSGG,< -0.25
17,FAHVTLSLLKR,< -0.25
18,FAIASEE,< -0.25
19,FALYA,< -0.25
20,FANAFP,< -0.25
21,FAPMGLSGVEDEFLPCQV,-0.235
22,FAQGVHR,< -0.25
23,FARLYHTSLLRRAVPVLTKR,< -0.25
24,FARRLVRNRQTSQDAMPETA,< -0.25
25,FARWD,< -0.25

# Not a retest: an excerpt of the list.
row,Substance,growth estimate
8,EQGSAQRHGQVLREGPNRAT,< -0.25
9,EQLVTRRDRLALKLQPPTRV,< -0.25

# (listing goes on)

row,Substance,growth estimate
1,FASI,< -0.25
2,FATGTPSVHCVRMITPQLSQ,< -0.25
3,FAVSDVLCGHQARSRGIHSV,< -0.25
4,FAYGLRGRVRGVACKSHATN,< -0.25
5,FAYGWSWALGLGLADRGHGL,< -0.25
6,FAYVRVRLTRP,< -0.25
7,FCAGADPGCFIGRDQHT,< -0.25
8,FCFEKQMD,< -0.25
9,FCGHIPHLIIDVHPETGSRA,< -0.25
10,FCKRLAVQQERWTCRPGLGD,< -0.25
11,FCLRALAILIQLISDKLRLV,< -0.25
12,FCLVGSYGAAGSAPCTAAAG,< -0.25
13,FCLVIGIREYIMG,< -0.25
14,FCNRPGVSGSWGLVTNVELA,< -0.25
15,FCPILQNTLRLPPPDTKEGI,< -0.25
16,FCPRGQYMLAQTNRVVWRIS,< -0.25
17,FCQVQGSAANYQSA,< -0.25
18,FCRLAFFRRSSLLVCGHWHP,< -0.25
19,FCV,< -0.25
20,FDAYVLKVLGAKSSRRLRVF,< -0.25
21,FDHNDYQVVDQFHTPDILYW,< -0.25
22,FDIGGESVRACTSGSLVLAS,< -0.25
